By UniProt entry, the sequences of proteins in these tests, tags left out. Residues count along the entry.
UniProt P19338, 2-710: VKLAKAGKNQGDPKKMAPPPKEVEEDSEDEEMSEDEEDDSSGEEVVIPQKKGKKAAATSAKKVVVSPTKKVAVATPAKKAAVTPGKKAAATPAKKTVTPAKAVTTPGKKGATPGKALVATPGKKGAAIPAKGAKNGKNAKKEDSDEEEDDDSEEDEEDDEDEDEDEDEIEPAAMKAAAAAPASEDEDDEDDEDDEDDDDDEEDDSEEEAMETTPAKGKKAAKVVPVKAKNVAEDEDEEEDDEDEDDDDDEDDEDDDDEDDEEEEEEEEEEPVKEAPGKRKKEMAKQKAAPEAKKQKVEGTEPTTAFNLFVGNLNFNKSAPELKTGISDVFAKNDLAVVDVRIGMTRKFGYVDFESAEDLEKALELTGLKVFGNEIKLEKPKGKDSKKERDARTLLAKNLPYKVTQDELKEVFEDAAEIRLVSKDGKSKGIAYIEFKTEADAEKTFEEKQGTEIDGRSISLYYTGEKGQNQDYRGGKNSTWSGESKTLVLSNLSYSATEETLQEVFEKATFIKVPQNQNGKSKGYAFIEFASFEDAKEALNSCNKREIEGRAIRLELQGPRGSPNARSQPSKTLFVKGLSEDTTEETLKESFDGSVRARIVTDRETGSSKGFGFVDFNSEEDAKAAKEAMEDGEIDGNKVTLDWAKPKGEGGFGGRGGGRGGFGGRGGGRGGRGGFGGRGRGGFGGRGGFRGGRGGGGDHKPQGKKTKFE

According to patent US20090326047:

Key:
[1] = target: nucleolin (approximately 116 kDa form + GRO-binding protein) (Homo sapiens) (UniProt P19338); assay: competition with a labelled probe; conditions: protein in an extract
[2] = target: nucleolin (116 kDa) (Homo sapiens) (UniProt P19338); assay: pull-down; conditions: cells treated with 5 uM biotinylated oligo 2 h, streptavidin capture, nucleolin antibody Western; protein in cells; protein details: endogenous, MDA-MB-231 cells; label: 5'-biotin; single-stranded DNA; variant of GRO15A
[3] = target: nucleolin (106 kDa G-rich oligonucleotide binding protein, p106) (Homo sapiens) (UniProt P19338); assay: EMSA; conditions: protein in an extract, protein details: HeLa nuclear extract, Promega bandshift grade, label: 5'-32P (when used as probe)
[4] = target: nucleolin (approximately 116 kDa form + GRO-binding protein) (Homo sapiens) (UniProt P19338); assay: binding assay; conditions: 3'-propylamine; Southwestern; approx. 116 kDa band coincides with nucleolin antibody band in nuclear, cytoplasmic and membrane extracts; protein in an extract; label: 5'-32P (when used as probe); single-stranded DNA
[5] = target: nucleolin (approximately 116 kDa form + GRO-binding protein) (Homo sapiens) (UniProt P19338); assay: EMSA; conditions: protein in an extract; label: 5'-32P (when used as probe); folded or branched DNA
[6] = 3'-propylamine, competes with TEL less effectively than GRO29A, 10-fold molar excess, single-stranded DNA

GGTTGGGGTGGGTGGGGTGGGTGGG [GRO25A]: binds more weakly [1, 6].
GTTGTTTGGGGTGG [GRO14A]: binds more weakly [1, 6].
GTTGTTTGGGGTGGT [5'-Biotin-GRO15A]: binds [2].
GTTGTTTGGGGTGGT [GRO15A]: binds ([3]; 3'-propylamine, single-stranded DNA); binds [4].
TTAGGGTTAGGGTTAGGGTTAGGG [TEL]: binds [5]; binds ([3]; folded or branched DNA).
TTTGGTGGTGGTGGTTGTGGTGGTGGTG [GRO28A]: binds more weakly [1, 6].
TTTGGTGGTGGTGGTTGTGGTGGTGGTGG [29A-OH]: binds ([1]; strong competition with labeled TEL at 10 nM, single-stranded DNA, variant of GRO29A).
TTTGGTGGTGGTGGTTGTGGTGGTGGTGG [GRO29A]: binds ([1]; 3'-propylamine, strong competition with labeled TEL at 10 nM, label: 5'-32P (when used as probe), folded or branched DNA); binds ([3]; 3'-propylamine, intense complex, Southwestern 106 kDa band, competes TEL, 140 mM KCl, 2.5 mM MgCl2, folded or branched DNA).

Results from cells or extracts need not show a direct contact. For some assays here: A weaker result is weaker than the reference pair of the same experiment. For some assays here: Construct, isoform or probe ends are uncertain for at least one entry.
